# Data as given in PubChem BioAssay AID493246 (Drosophila RNAi Screening Center, 2011)
# Screen: 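Genes fly cells need to grow and stay alive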 (primary screen)
# Cells: Drosophila Kc and S2R+ cells
# Reagents: long dsRNA against Drosophila genes
# Measurement: 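Cell number per well after knock-down, printed as raw plate values; calls were based on per-plate z-scores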
# Direction: Kc cell number and S2R+ cell number: higher = more cells remaining
# Active means: 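Counted as a hit if cell number falls by a z-score of at least 3 within its plate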
# In all, the deposit lists about 21,000 reagents; shown is a random part of those with a known target gene and a result. In the full data, 429 (2%) are marked active. 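Values are raw and not normalised between plates; calls rest on per-plate z-scores that were not deposited.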 The numbers tell different reagents against one gene apart. Reagent sequences are not shown. Not stated in the record: the amount of reagent, the time to read-out.
gene,dsRNA no.,"Kc cell number, rep 1","Kc cell number, rep 2","S2R+ cell number, rep 1","S2R+ cell number, rep 2",outcome
CG5554 (GeneID 37775),1,1.53e6,1.56e6,1.20e6,1.43e6,inactive
OtopLa (GeneID 8674066),1,1.31e6,1.39e6,9.73e5,1.07e6,inactive
OtopLa (GeneID 8674066),2,1.61e6,1.58e6,1.03e6,1.18e6,inactive
CG14626 (GeneID 31064),1,1.48e6,1.48e6,1.09e6,1.25e6,inactive
Sc2 (GeneID 38457),1,1.36e6,1.46e6,1.13e6,1.15e6,inactive
Gpdh3 (GeneID 42624),1,1.38e6,1.42e6,1.05e6,1.10e6,inactive
Gpdh3 (GeneID 42624),2,1.22e6,1.25e6,1.10e6,1.20e6,inactive
CG7255 (GeneID 39662),1,1.62e6,1.59e6,1.22e6,1.32e6,inactive
CG34196 (GeneID 5740437),1,6.23e5,,7.64e5,,inactive
Or33c (GeneID 34603),1,1.51e6,1.61e6,1.26e6,1.41e6,inactive
CG13950 (GeneID 33267),1,1.46e6,1.52e6,1.04e6,1.19e6,inactive
Tengl1 (GeneID 318883),1,1.50e6,1.51e6,1.02e6,1.15e6,inactive
CG11843 (GeneID 43432),1,1.52e6,1.56e6,1.11e6,1.22e6,inactive
CG9521 (GeneID 32414),1,1.47e6,1.50e6,1.08e6,1.19e6,inactive
esn (GeneID 53557),1,1.45e6,1.53e6,9.62e5,1.09e6,inactive
esn (GeneID 53557),2,1.53e6,1.58e6,1.23e6,1.26e6,inactive
Caper (GeneID 33989),1,1.17e6,1.33e6,4.15e5,5.54e5,inactive
Naxe (GeneID 31944),1,1.59e6,1.48e6,1.08e6,1.22e6,inactive
CG33642 (GeneID 3771733),1,1.60e6,1.62e6,1.10e6,1.23e6,inactive
Fnta (GeneID 33682),1,1.26e6,1.36e6,7.73e5,7.63e5,inactive
CG30432 (GeneID 246611),1,1.50e6,1.51e6,9.68e5,1.08e6,inactive
CG14715 (GeneID 41403),1,1.41e6,1.51e6,1.16e6,1.23e6,inactive
toc (GeneID 33526),1,1.57e6,1.58e6,1.08e6,1.24e6,inactive
toc (GeneID 33526),2,1.52e6,1.55e6,1.07e6,1.18e6,inactive
toc (GeneID 33526),3,1.29e6,1.32e6,9.88e5,1.09e6,inactive
CG11839 (GeneID 43006),1,1.50e6,1.51e6,1.07e6,1.12e6,inactive
CG34163 (GeneID 5740407),1,1.65e6,1.74e6,1.08e6,1.19e6,inactive
CG15631 (GeneID 33675),1,1.49e6,1.41e6,1.08e6,1.26e6,inactive
CG12725 (GeneID 32298),1,1.89e6,1.83e6,1.15e6,1.27e6,inactive
CG18343 (GeneID 36297),1,1.68e6,1.60e6,1.25e6,1.40e6,inactive
CG14857 (GeneID 41791),1,1.36e6,1.37e6,1.10e6,1.20e6,inactive
Osi11 (GeneID 40765),1,1.57e6,1.78e6,1.28e6,1.36e6,inactive
Lnpk (GeneID 35842),1,1.48e6,1.64e6,9.37e5,1.02e6,inactive
RIOK1 (GeneID 39309),1,1.47e6,1.55e6,1.28e6,1.24e6,inactive
CG7248 (GeneID 39356),1,1.21e6,1.20e6,1.28e6,1.37e6,inactive
Sec23 (GeneID 40694),1,1.57e6,1.57e6,1.11e6,1.18e6,inactive
GstZ2 (GeneID 41133),1,1.51e6,1.53e6,1.21e6,1.30e6,inactive
Oct-TyrR (GeneID 42452),1,1.45e6,1.36e6,1.39e6,1.44e6,inactive
Vmat (GeneID 3346192),1,1.36e6,1.38e6,1.12e6,1.10e6,inactive
Vmat (GeneID 3346192),2,1.67e6,1.67e6,1.22e6,1.37e6,inactive
CG14985 (GeneID 38470),1,1.57e6,1.50e6,1.06e6,1.25e6,inactive
CG14985 (GeneID 38470),2,1.39e6,1.25e6,1.07e6,1.28e6,inactive
COX5B (GeneID 33918),1,1.25e6,1.37e6,9.23e5,1.06e6,inactive
Srp19 (GeneID 38815),1,1.62e6,1.69e6,1.24e6,1.24e6,inactive
dtn (GeneID 31555),1,1.52e6,1.59e6,1.16e6,1.30e6,inactive
CG42685 (GeneID 34854),1,1.44e6,1.66e6,1.02e6,1.17e6,inactive
CG33557 (GeneID 3346145),1,1.58e6,1.67e6,1.08e6,1.21e6,inactive
Obp19a (GeneID 33037),1,1.52e6,1.61e6,1.05e6,1.21e6,inactive
CG30427 (GeneID 37986),1,1.42e6,1.50e6,9.40e5,1.04e6,inactive
CG30427 (GeneID 37986),2,1.37e6,1.39e6,1.15e6,1.17e6,inactive
CG30427 (GeneID 37986),3,1.50e6,1.64e6,1.45e6,1.73e6,inactive
CROT (GeneID 43332),1,4.83e5,,7.76e5,,inactive
CROT (GeneID 43332),2,1.42e6,1.42e6,9.88e5,1.10e6,inactive
List (GeneID 37157),1,1.61e6,1.68e6,1.19e6,1.34e6,inactive
Tcs5 (GeneID 38600),1,1.48e6,1.34e6,1.20e6,1.23e6,inactive
CG18745 (GeneID 59141),1,1.53e6,1.61e6,1.29e6,1.44e6,inactive
CG34452 (GeneID 5740876),1,1.37e6,1.40e6,1.15e6,1.26e6,inactive
CCT2 (GeneID 31838),1,4.90e5,,8.47e5,,inactive
Hira (GeneID 31680),1,1.56e6,1.60e6,9.95e5,1.09e6,inactive
CG44774 (GeneID 31424),1,1.60e6,1.58e6,1.09e6,1.25e6,inactive
CG10877 (GeneID 42432),1,1.34e6,1.50e6,1.05e6,1.14e6,inactive
CG9117 (GeneID 33846),1,1.61e6,1.80e6,1.14e6,1.30e6,inactive
CG14406 (GeneID 32421),1,1.49e6,1.51e6,1.14e6,1.27e6,inactive
ApepP (GeneID 35029),1,1.20e6,1.34e6,1.18e6,9.47e5,inactive
CG14891 (GeneID 42013),1,1.51e6,1.67e6,1.13e6,1.22e6,inactive
tho2 (GeneID 326153),1,9.73e5,8.73e5,6.47e5,6.22e5,inactive
CG3323 (GeneID 31439),1,1.55e6,1.57e6,1.15e6,1.18e6,inactive
CG40486 (GeneID 3355162),1,1.69e6,1.74e6,1.04e6,1.18e6,inactive
CG17024 (retired record) (GeneID 34664),1,1.81e6,1.94e6,1.20e6,1.39e6,inactive
CG16935 (GeneID 36540),1,1.59e6,1.60e6,1.22e6,1.43e6,inactive
CG13344 (GeneID 36541),1,1.37e6,1.43e6,1.11e6,1.18e6,inactive
ND-B14 (GeneID 36159),1,1.60e6,1.67e6,1.07e6,1.22e6,inactive
Syx4 (GeneID 31269),1,1.38e6,1.40e6,1.05e6,1.18e6,inactive
zen (GeneID 40828),1,1.32e6,1.36e6,1.26e6,1.35e6,inactive
CG42615 (GeneID 8674036),1,1.41e6,1.49e6,9.63e5,1.10e6,inactive

Reformatted: entries from further up.
{"gene":"Vmat (GeneID 3346192)","dsRNA no.":2,"Kc cell number, rep 1":1.67e6,"Kc cell number, rep 2":1.67e6,"S2R+ cell number, rep 1":1.22e6,"S2R+ cell number, rep 2":1.37e6,"outcome":"inactive"}
{"gene":"CG14985 (GeneID 38470)","dsRNA no.":1,"Kc cell number, rep 1":1.57e6,"Kc cell number, rep 2":1.50e6,"S2R+ cell number, rep 1":1.06e6,"S2R+ cell number, rep 2":1.25e6,"outcome":"inactive"}
{"gene":"CG14985 (GeneID 38470)","dsRNA no.":2,"Kc cell number, rep 1":1.39e6,"Kc cell number, rep 2":1.25e6,"S2R+ cell number, rep 1":1.07e6,"S2R+ cell number, rep 2":1.28e6,"outcome":"inactive"}
{"gene":"COX5B (GeneID 33918)","dsRNA no.":1,"Kc cell number, rep 1":1.25e6,"Kc cell number, rep 2":1.37e6,"S2R+ cell number, rep 1":9.23e5,"S2R+ cell number, rep 2":1.06e6,"outcome":"inactive"}
{"gene":"Srp19 (GeneID 38815)","dsRNA no.":1,"Kc cell number, rep 1":1.62e6,"Kc cell number, rep 2":1.69e6,"S2R+ cell number, rep 1":1.24e6,"S2R+ cell number, rep 2":1.24e6,"outcome":"inactive"}
{"gene":"dtn (GeneID 31555)","dsRNA no.":1,"Kc cell number, rep 1":1.52e6,"Kc cell number, rep 2":1.59e6,"S2R+ cell number, rep 1":1.16e6,"S2R+ cell number, rep 2":1.30e6,"outcome":"inactive"}
{"gene":"CG42685 (GeneID 34854)","dsRNA no.":1,"Kc cell number, rep 1":1.44e6,"Kc cell number, rep 2":1.66e6,"S2R+ cell number, rep 1":1.02e6,"S2R+ cell number, rep 2":1.17e6,"outcome":"inactive"}
{"gene":"CG33557 (GeneID 3346145)","dsRNA no.":1,"Kc cell number, rep 1":1.58e6,"Kc cell number, rep 2":1.67e6,"S2R+ cell number, rep 1":1.08e6,"S2R+ cell number, rep 2":1.21e6,"outcome":"inactive"}
{"gene":"Obp19a (GeneID 33037)","dsRNA no.":1,"Kc cell number, rep 1":1.52e6,"Kc cell number, rep 2":1.61e6,"S2R+ cell number, rep 1":1.05e6,"S2R+ cell number, rep 2":1.21e6,"outcome":"inactive"}
